# Assay results from patent publication US20080287469A1, “Phosphoinositide 3-Kinase Inhibitors for Inhibiting Leukocyte Accumulation” (priority 2005, published 2008).
# Some results were stated once for a whole list of compounds, not compound by compound. At least one compound was matched to its structure with a doubt left.
# Tested on: TNFα-stimulated HUVEC monolayers
# Experiment: Laminar flow assay: neutrophil capture by TNFα-stimulated HUVEC monolayers
# Assay type: cell-based, human
# Details: wall shear rate 200 s^−1; IC87114 2 μM, LY294002 10 μM, Bay 11-7082 10 μM, CL3 50 μg/ml
# Description: Peripheral blood neutrophils were isolated from healthy volunteers and infused over the endothelial cell monolayer that was incorporated into a parallel plate flow chamber (GlycoTech) for 5 min at a shear rate of 200 s^−1. (Puri et al., Blood, 103:3448-3456 (2004)) Approval was obtained from the Washington University institutional review board for these studies. Informed consent was provided according to the Declaration of Helsinki. Neutrophil-endothelial cell interactions were recorded and analyzed as previously described. (Puri et al., Blood, 103:3448-3456 (2004)) For E-selectin blockade, HUVECs were incubated with mAb CL3 (50 μg/ml, 15 min) prior to adhesion assays.
compound,measurement,value
Cc1ccccc1-n1c(Cn2cnc3c(N)ncnc32)nc2cccc(C)c2c1=O [IC87114],reduction of capture/attachment of untreated neutrophils,over 45%
